Tested on: NCI-60 cell panel
Assay: NCI COMPARE analysis
Set-up: species or system human
Conditions: NCI Standard Agents database; for PCC with Maytansine: GI50, high concentration tested 10^–^8.6 M
[1] = high concentration tested 10^–^4.0 M

Row | SMILES | PCC with Maytansine | PCC with Batracylin [1] | PCC with D-tetrandrine [1]
1 | CCn1cc(Nc2ncc3nnn(-c4ccc(C(=O)OC)cc4)c3n2)cn1 [Compound 1, Methyl 4-(5-((1-ethyl-1H-pyrazol-4-yl)amino)-3H-[1,2,3]triazolo[4,5-d]pyrimidin-3-yl)benzoate] | 0.519 | 0.488 | 
2 | CCOc1ccc(-n2nnc3cnc(Nc4cnn(CC)c4)nc32)cc1 [Compound 2, 3-(4-Ethoxyphenyl)-N-(1-ethyl-1H-pyrazol-4-yl)-3H-[1,2,3]triazolo[4,5-d]pyrimidin-5-amine] | 0.554 |  | 0.488

— publication PMC6197744, “Triazolo[4,5-d]pyrimidines as Validated General Control Nonderepressible 2 (GCN2) Protein Kinase Inhibitors Reduce Growth of Leukemia Cells” (Computational and Structural Biotechnology Journal, 2018)
